In publication PMC10082770 one finds binding data, which are given here for two molecules.

The chains behind the UniProt entries cited, without tags or fusion partners.
UniProt Q9UMS4: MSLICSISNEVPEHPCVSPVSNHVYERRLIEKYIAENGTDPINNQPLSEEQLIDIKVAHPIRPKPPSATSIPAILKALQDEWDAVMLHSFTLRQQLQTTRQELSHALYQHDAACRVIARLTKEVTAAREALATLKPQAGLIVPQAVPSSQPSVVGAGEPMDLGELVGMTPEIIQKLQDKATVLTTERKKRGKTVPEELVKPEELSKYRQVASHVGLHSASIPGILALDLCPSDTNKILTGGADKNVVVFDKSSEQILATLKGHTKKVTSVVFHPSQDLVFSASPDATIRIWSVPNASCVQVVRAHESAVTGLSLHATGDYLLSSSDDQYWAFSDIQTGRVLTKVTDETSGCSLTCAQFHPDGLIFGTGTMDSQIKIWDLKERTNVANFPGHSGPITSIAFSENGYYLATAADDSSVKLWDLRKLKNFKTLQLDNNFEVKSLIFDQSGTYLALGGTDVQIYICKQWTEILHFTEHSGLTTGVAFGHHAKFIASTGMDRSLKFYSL

Results are given in words; binding and its absence hold for the method and conditions named. In cells and extracts the contact can be indirect. Some results given as binding are weak or reduced against the parent protein; the word gives no strength. For some assays here: Sequences can lack the tags named with a protein.

Experiment [1] has as its target Flag-PRPF19 (Pre-mRNA processing factor 19) (UniProt Q9UMS4). Briefly: co-IP; DLD1 and HCT15 cells co-transfected with Flag-PRPF19 and HA-MYL9 for 48 h, MG132 for 5 h; IP anti-Flag with blot anti-HA, and IP anti-HA with blot anti-Flag.
For experiment [2], the target named is PRPF19 (endogenous) (human (endogenous in DLD1, HCT15, HCT116)) (UniProt Q9UMS4). Briefly: co-IP; endogenous proteins; DLD1, HCT15 and HCT116 cells, MG132 for 5 h; lysates immunoprecipitated with anti-IgG, anti-MYL9 or anti-PRPF19, then immunoblot. Background: A western blot detects proteins with antibodies after separation by electrophoresis.

B1: HA-MYL9 (myosin light chain 9) (protein, UniProt P24844 1-172)
chain: MSSKRAKAKTTKKRPQRATSNVFAMFDQSQIQEFKEAFNMIDQNRDGFIDKEDLHDMLASLGKNPTDEYLEGMMSEAPGPINFTMFLTMFGEKLNGTDPEDVIRNAFACFDEEASGFIHEDHLRELLTTMGDRFTDEEVDEMYREAPIDKKGNFNYVEFTRILKHGAKDKDD
With B1, the binding result in experiment [1] is “binds”.

B2: MYL9 (endogenous) (protein, UniProt P24844 1-172)
chain: MSSKRAKAKTTKKRPQRATSNVFAMFDQSQIQEFKEAFNMIDQNRDGFIDKEDLHDMLASLGKNPTDEYLEGMMSEAPGPINFTMFLTMFGEKLNGTDPEDVIRNAFACFDEEASGFIHEDHLRELLTTMGDRFTDEEVDEMYREAPIDKKGNFNYVEFTRILKHGAKDKDD
Regarding B2, the binding entry in experiment [2] was “binds”.
